{"source": "patent US20240262804A1", "about": "“NITROGEN-CONTAINING HETEROCYCLIC KETONES, PREPARATION METHODS AND MEDICINAL USES THEREOF” (Hansoh Bio LLC, priority 2021, published 2024)", "system": "rabbit skinned skeletal myofibrils (myosin)", "assay": "Myosin inhibitory potency comparison: ATPase assay, skeletal myofibrils", "assay_type": "biochemical", "details": "ratio of skeletal IC50 to cardiac IC50", "procedure": "In our experiments, bovine skinned cardiac myofibrils were isolated from the frozen bovine left ventricle as myosin's source in the ATPase assay. The calcium concentration that achieves a 50% (pCa50 or pCa=6.25) activation of the myofibril system was chosen as the final condition for assessing the activation activity according to the literature (DOI: 10.1074/jbc.M117.776815). Myofibrils ATPase activity was measured in a buffered solution containing 12 mM PIPES (piperazine-N, N′-bis(2-ethane sulfonic acid) and 2 mM magnesium chloride at pH 6.8 (PM12 buffer). Final assay conditions were 1 mg/mL of bovine cardiac myofibrils, 1:20 of stock PK/LDH (Sigma-Aldrich, Cat No. P0294-5X5ML), 50 μM ATP, 1 mM DTT (dithiothreitol), 0.75 mM NADH, 1.5 mM PEP at pCa50 (pCa=6.25). Compounds were dissolved in DMSO (dimethyl sulfoxide). Serial dilution of compounds was created such that the final desired concentration of compound would be achieved in a volume of 150 μL with a fixed DMSO concentration of 2% (v/v). […] The ATPase activity was measured by reading absorbance at 340 nm in a PerkinElmer Victor Nivo plate reader at 25° C. in kinetic mode for 15 minutes using clear bottom plates. The slopes of the absorbance changes as a function of time for the first 10 minutes were normalized to slopes on the control wells containing all reagents, including DMSO, but without compounds. […]", "note": "For at least one compound, name, drawing or mass did not settle the structure."}
{"smiles": "Cc1cccc([C@H](C)Nc2nc(=O)n(C3CCOCC3)c(=O)[nH]2)c1", "note": "[Example 4]", "values": [{"measurement": "Skeleta/Cardiac", "value": 2.72}]}
